Measurements taken from the supplement of paper PMC6143611.
Where a name gives a salt, the structure may show the parent alone. ± gives the uncertainty stated by the source. This is one part of the list. Part of the spread comes from offsets between plates or batches.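 A heat-shock-induced fluorescent stripe was set in larval rod outer segments at 6 dpf. Shedding distance ran from stripe to outer segment tip, measured by confocal stacks in about three fish per compound. Controls: 0.2% DMSO vehicle. Flagged compounds showed ≥20% change from same-week control, p < 0.001 (Dunnett test on mixed-effects models).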

Each compound was assayed on Danio rerio larva rod photoreceptor outer segment (assay: rod outer segment growth distance Dg, difference from same-week DMSO control mean; higher = more outer segment growth). Conditions: 20 µM; treatment time: 4 days (6-10 dpf).
In the case of `Cc1nc(=O)c2cc(CN(C)c3ccc(C(=O)N[C@@H](CCC(=O)O)C(=O)O)s3)ccc2[nH]1` [Raltitrexed], the “rod outer segment growth distance Dg” value is reported as 0.15 ± 0.17 um.
In the case of `CC(C)(C#N)c1cc(Cn2cncn2)cc(C(C)(C)C#N)c1` [Anastrozole], the “rod outer segment growth distance Dg” value is reported as -0.17 ± 0.17 um.
`CCC(C)(Oc1ccc(C2(c3ccc(OC(C)(CC)C(=O)O)cc3)CCCCC2)cc1)C(=O)O` (stereo unspecified) [Clinofibrate] was tested, and the “rod outer segment growth distance Dg” value was -0.89 ± 0.22 um.
For `COc1ccc2cc([C@H](C)C(=O)O)ccc2c1` [Naproxen], the “rod outer segment growth distance Dg” value was -0.5 ± 0.25 um.
`Cc1cc(Nc2ncnc3ccc(-c4ccc(CNCCS(C)(=O)=O)o4)cc23)ccc1Oc1ccn2ncnc2c1` [HER2-Inhibitor-1] was tested, and the “rod outer segment growth distance Dg” value was -0.48 ± 0.13 um.
With `CCCCCCCCCCCCCCCC(=O)OC[C@H](O)[C@H]1OC(=O)C(O)=C1O` [L-Ascorbyl 6-palmitate] the “rod outer segment growth distance Dg” value was -0.05 ± 0.23 um.
With `C=CC[N+]1([C@H]2C[C@H]3[C@@H]4CC[C@H]5C[C@H](O)[C@@H](N6CCOCC6)C[C@]5(C)[C@H]4CC[C@]3(C)[C@H]2OC(C)=O)CCCC1` [Rocuronium Bromide] the “rod outer segment growth distance Dg” value was -0.87 ± 0.19 um.
With `CNCc1ccc(-c2[nH]c3cc(F)cc4c3c2CCNC4=O)cc1` the “rod outer segment growth distance Dg” value was -1.62 ± 0.22 um.
For `CCOC(=O)[C@H](CCc1ccccc1)N[C@@H](C)C(=O)N1Cc2cc(OC)c(OC)cc2C[C@H]1C(=O)O` [Moexipril HCl], the “rod outer segment growth distance Dg” value was 0.46 ± 0.2 um.
`O=C(NCCO[N+](=O)[O-])c1cccnc1` [Nicorandil] was tested, and the “rod outer segment growth distance Dg” value was 1.19 ± 0.29 um.
`CC[C@H](CO)Nc1nc(NCc2ccccc2)c2ncn(C(C)C)c2n1` [Roscovitine (Seliciclib,CYC202)] was tested, and the “rod outer segment growth distance Dg” value was -0.04 ± 0.27 um.
In the case of `[I-].[K+]` [Potassium Iodide], the “rod outer segment growth distance Dg” value is reported as 0.87 ± 0.26 um.
For `Cc1ccc(Nc2nccc(N(C)c3ccc4c(C)n(C)nc4c3)n2)cc1S(N)(=O)=O` [Pazopanib], the “rod outer segment growth distance Dg” value was -0.35 ± 0.19 um.
With `CC(/C=C1\SC(=S)N(CC(=O)O)C1=O)=C\c1ccccc1` [Epalrestat] the “rod outer segment growth distance Dg” value was 0.55 ± 0.25 um.
In the case of `O=C1NC(=O)C(c2ccccc2)(c2ccccc2)N1` [Phenytoin], the “rod outer segment growth distance Dg” value is reported as -0.3 ± 0.22 um.
`Cc1cc2c(cc1CC(=O)c1sccc1S(=O)(=O)Nc1onc(C)c1Cl)OCO2` [Sitaxentan sodium] was tested, and the “rod outer segment growth distance Dg” value was -0.03 ± 0.17 um.
For `O=C1c2c(O)ccc(O)c2C(=O)c2c(NCCNCCO)ccc(NCCNCCO)c21` [Mitoxantrone HCl], the “rod outer segment growth distance Dg” value was -0.02 ± 0.24 um.
In the case of `COc1ccnc2[nH]cc(C(=O)C(=O)N3CCN(C(=O)c4ccccc4)C[C@H]3C)c12`, the “rod outer segment growth distance Dg” value is reported as -0.26 ± 0.17 um.
With `O=C(NC[C@H]1CN(c2ccc(N3CCOCC3=O)cc2)C(=O)O1)c1ccc(Cl)s1` [Rivaroxaban] the “rod outer segment growth distance Dg” value was -0.85 ± 0.17 um.
With `Cn1cc(-c2ccc3nnc(C(F)(F)c4ccc5ncccc5c4)n3n2)cn1` the “rod outer segment growth distance Dg” value was -0.99 ± 0.19 um.
`CN(C)c1ccc(-c2nc3ncc(Cl)c(N4CCN(CC(=O)Nc5nccs5)CC4)c3[nH]2)cc1` was tested, and the “rod outer segment growth distance Dg” value was -2.12 ± 0.18 um.
`Cc1ncc(-c2ccnc(Nc3ccc(S(C)(=O)=O)cc3)n2)n1C(C)C` was tested, and the “rod outer segment growth distance Dg” value was -1.29 ± 0.19 um.
With `COc1ccc2cc3[n+](cc2c1OC)CCc1cc2c(cc1-3)OCO2` [Berberine HCl] the “rod outer segment growth distance Dg” value was -0.83 ± 0.37 um.
In the case of `O=C(O)CSCC(=O)NC1CCSC1=O` (stereo unspecified) [Erdosteine], the “rod outer segment growth distance Dg” value is reported as -0.27 ± 0.25 um.
`Cn1nnc2c(C(N)=O)ncn2c1=O` [Temozolomide] was tested, and the “rod outer segment growth distance Dg” value was 0.11 ± 0.26 um.
With `CC(=O)Nc1nc(C)c(-c2ccc(Cl)c(S(=O)(=O)NCCO)c2)s1` the “rod outer segment growth distance Dg” value was -0.5 ± 0.17 um.
